Laboratory results published in PubChem BioAssay AID624297 (National Center for Advancing Translational Sciences (NCATS), 2012).
About 6,200 (1.8%) of roughly 340,000 compounds were called active. Inconclusive results, whose numbers are uncertain, are shown with a selection of clear calls. Calls come from the whole dose curve; as a rule, active = well fitted activation curve with a large enough effect; inconclusive = small, poorly fitted or top-dose-only effect; inactive = no such curve, though single readings can be large or run the other way. Where the call is inconclusive, the potency comes from a doubtful curve fit.

Experiment: A quantitative high throughput screen for small molecules that induce DNA re-replication in SW480 colon adenocarcinoma cells. For re-replication activation: % of control where 0% means no effect. Note: nearly all actives have a fitted effect of over 55% in size.
Conditions: Hoechst DNA content imaging, 48 h; re-replication activation: at 46.1 µM (top of the series) unless noted
Outline: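 DNA re-replication was detected as more nuclei of elevated Hoechst intensity after 48 hr exposure to compound (23 nL pinned per well of 250 cells).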
Potency is the fitted concentration of half-maximal effect.

| SMILES | Potency | re-replication activation |
| --- | --- | --- |
| CCOCCCNC(=S)NCCNc1nc2c(C)cccc2cc1C#N | inconclusive: 18.4 µM [activator, partial curve, poor fit] | – |
| CC(C)(C)NC(=O)C(=O)NNC(=O)c1cccc(F)c1 | – | inactive: 5.55% |
| c1ccc2cc3c(NCCN4CCOCC4)ccnc3cc2c1 | active: 10.3 µM | – |
| Cc1cccc(NC(=O)c2sc3nc4c(c(-c5cccs5)c3c2N)CN(C)CC4)c1 | inconclusive: 29.1 µM [activator, single point] | – |
| CC(C)(C)Sc1ccc(/C=N/O)cc1[N+](=O)[O-] | – | inactive: 2.3% |
| CN(CC(=O)Nc1c(Cl)cccc1Cl)C(=O)Cc1ccc(S(=O)(=O)N2CCOCC2)s1 | inconclusive: 29.1 µM [activator, single point] | – |
| O=C(CSc1nc2c([nH]c3ccccc32)c(=O)n1-c1cccc(Cl)c1)N1CCOCC1 | inconclusive: 10.3 µM [activator, partial curve, poor fit] | – |
| Cn1cc(C(=O)c2ccc(Cl)cc2Cl)cc1C(=O)NN | – | inactive: -5.57% |
| COc1ccc(OC)c(C(=O)c2coc3ccc(O)cc23)c1 | inconclusive: 23.1 µM [activator, single point] | – |
| Cc1ccc(NC(=O)Cn2nnc(-c3ccccc3NC(=O)c3cccs3)n2)cc1 | active: 3.66 µM | – |
| CCOc1ccc(C(=O)N[C@H](C(=O)Nc2ccc(S(=O)(=O)Nc3nccs3)cc2)C(C)C)cc1 | – | inactive: 0.712% |
| CCN(CC)CCNC(=O)c1sc2ncn(CC(=O)Nc3ccc(C)c(Cl)c3)c(=O)c2c1C | inconclusive: 11.6 µM [activator, single point] | – |
| Cc1cccc2sc(NS(=O)(=O)c3ccccc3)nc12 | inconclusive: 18.4 µM [activator, single point] | – |
| O=[N+]([O-])c1cc(/C=N/OCc2c(Cl)cccc2Cl)ccc1N1CCOCC1 | inconclusive: 16.4 µM [activator, partial curve, poor fit] | – |
| Cc1ccc2nc(SCC(=O)N3CCN(c4ccccc4)CC3)nc(=O)n2c1 | inconclusive: 1.46 µM [activator, partial curve, poor fit] | – |
| Cn1c(OCc2cccnc2)nc2c1c(=O)n(Cc1ccc(Br)cc1)c(=O)n2C | – | inactive: -2.21% |
| COc1ccc(CNCc2cc(C)c(OC)cc2C)c(OC)c1 | inconclusive: 3.26 µM [activator, single point] | – |
| O=C(Nc1ccc2oc(-c3ccc4ccccc4c3)nc2c1)c1ccc2c(c1)OCCO2 | inconclusive: 29.1 µM [activator, single point] | – |
| Cc1ccc(C(=O)O/N=C(\N)c2ccccn2)c(C)c1 | inconclusive: 18.4 µM [activator, single point] | – |

Retrieved by compound from above, 2 records:

| SMILES | Potency | re-replication activation |
| --- | --- | --- |
| CCOc1ccc(C(=O)N[C@H](C(=O)Nc2ccc(S(=O)(=O)Nc3nccs3)cc2)C(C)C)cc1 | – | inactive: 0.712% |
| Cc1cccc2sc(NS(=O)(=O)c3ccccc3)nc12 | inconclusive: 18.4 µM [activator, single point] | – |
